{
  "source": "paper PMC10928576",
  "about": "(Aging Cell, 2023)",
  "experiment": "peptide made by a vendor (Fmoc solid-phase peptide synthesis)",
  "details": "whole synthesis, high-performance liquid chromatography",
  "note": "Strings that start with PEPTIDE1 are HELM notation: dots part the residues, brackets hold end groups and non-standard residues.",
  "data": [
    {"substance": "PEPTIDE1{K.Y.K.Q.K.R.R.S.Y.K}$$$$V2.0", "values": [
      {"measurement": "purity (crude or final not stated)", "value": "greater than 97%"}
    ]}
  ]
}
